Measurements as given in patent publication US10292949B2, “Pharmaceutical composition comprising rimeporide for treating diseases associated with insulin resistance and β-cell dysfunction” (Merck Patent GmbH, priority 2008, dated 2019).
Structures can show the parent of a compound that is named as a salt. For at least one compound, name, drawing or mass did not settle the structure.

Assays:
Format in all cases: in vivo, rat
[1] = system: Obese, insulin resistant ZF (fa/fa) rats; experiment: Pharmacological Study Report I: random and fasting blood glucose and plasma insulin levels; conditions: Compound A 150 mg/kg gavage twice daily, Compound B 40 mg/kg/day in chow
Protocol: Obese, insulin resistant ZF (fa/fa) rats, which are treated from the age of 8-12 weeks, were used as IR model. Rats were housed with a 12-h light/dark cycle and free access to food and water unless otherwise noted. Studies were approved by the Institutional Animal Care and Use Committee. There were a total of 18 animals in the study (8 week-old males, provided by Charles River). Animals were randomized into 3 groups (vehicle group, Compound A group, Compound B group, n=6 per group) based on random glucose level at the beginning of the study: • Group 1: ZF rats (fa/fa) (n=6), compound A (150 mg/kg via gavage) • Group 2: ZF rats (fa/fa) (n=6), compound B (40 mg/kg/day as admixture to the chow) • Group 3: ZF rats (fa/fa) (n=6), vehicle treatment (control chow, vehicle gavage)
Group 1 and 3 animals were treated with compound A or vehicle (water) for 4 weeks (from age 8-12 weeks) via oral gavage, twice daily. Chow containing compound B was fed to Group 2 ad lib. Group 1 and Group 3 were fed with chow without compound B ad lib.
Random morning blood was withdrawn from ad libitium fed rats by a small cut in the tip of the tail. Blood was collected in heparinized tubes. Blood glucose concentrations were measured as per study design using a One-Touch glucometer (Lifescan Inc, Milptias, Calif.). Blood samples were placed on ice and centrifuged, and plasma stored at −20° C. until insulin was assayed. Rat plasma insulin concentration was measured with rat-specific ELISA kit (Crystal Chem Inc, Downers Grove, Ill.).
Random morning blood glucose levels were measured weekly between 9-11 a.m.
At the end of the study, rats were fasted for 4 hours and glucose and insulin level were measured.

obese Zucker fa/fa rats [2] = experiment: Pharmacological Study Report II: 2H-glucose disposal test (2H-GDT) on Days 0, 14 and 28
Protocol: (§1) Thirty-six obese Zucker fa/fa and six lean Zucker fa/? male rats obtained from Charles River, were housed under normal vivarium conditions on a 12 hour light/dark cycle. The rats were kept two to a cage with food and water available ad lib, except during the weekly, 4 hour fasts. Water continued to be available during these fasts.
(§2) Compound A corresponds to Cariporide. Compound B corresponds to 2-Methyl-4,5-di-(methylsulfonyl)-benzoyl-guanidine hydrochloride hydrate. Compounds A and B were supplied in powder form by Merck Serono. Drugs were incorporated into a pelleted diet (LabDiet, 5001) by Research Diets, Inc (New Brunswick, N.J.) at concentrations of 0.44 g/kg or 0.88 g/kg of diet to yield approximate doses of 40 or 80 mg/kg. The concentration was calculated based on the assumption that a 300 g rat would eat about 30 g/d of chow. The same chow, but without drug, was fed to rats of both the lean and fa/fa control group animals.
• 1. ZF rats (fa/fa) (n=6) chow without drug • 2. ZF rats (fa/fa) (n=6) compound A (40 mg/kg/day) • 3. ZF rats (fa/fa) (n=6) compound A (80 mg/kg/day) • 4. ZF rats (fa/fa) (n=6) compound B (40 mg/kg/day) • 5. ZF rats (fa/fa) (n=6) compound B (80 mg/kg/day) • 6. lean Zucker rats (fa/?) (n=6) chow without drug Dosing Regime
Insulin sensitivity (SI) and pancreatic compensation (PC) were measured by conducting ^2H-Glucose disposal test on Days 0, 14 and 28.
Time −4 h: Before the fast was begun on the morning of the GDT, a blood sample was taken to determine the random glucose level (see above). An additional blood sample was collected to determine the baseline ^2H2O and ^18O enrichments. The rats were weighed and the 4 h fast was begun. Water was available during the fast.
Time −3 h: One 1 hour after the start of the fast, 1.75 mg/g body weight of 10% H2^18O was administered by oral gavage (^2H2O-free H2O^18 water; 10% ^18O atom from Spectra; Cat. No 51350).
Time 0: 4 hours after the start of the fast, the blood glucose and insulin levels were determined. Rats received 4 ml/kg of a 50% glucose solution (comprised of 25% [6,6-^2H2] glucose and 25% D-glucose) by oral gavage.
At times 15, 30, 60 and 90 min post glucose challenge, blood glucose concentrations were again determined by a glucometer reading from tail vein blood. Additional blood samples were collected for insulin determinations. At 60 and 90 min post glucose challenge, whole blood was collected to determine the ^2H2O and H2^18O enrichments. All blood samples were centrifuged and the plasma was stored at −20° C. until assayed. The deuterium and oxygen-18 isotope enrichments of body water were determined by IRIS analysis of the water distillate of the plasma samples.
^2H2O enrichment was converted to mmol by multiplying enrichment (^2H2O APE) by the total body water pool size and dividing by 20 (molecular weight of ^2H2O). Total ^2H2O produced was calculated as the percent of the [6,6-^2H2] glucose load administered. Plasma insulin and glucose areas under the curve (AUC 60 min) were calculated using the trapezoidal method (GraphPad Prism).
Two parameters were calculated from the ^2H-GDT: • 1. Insulin sensitivity index (SI)=^2H2O production (% load)/(glucose AUC×insulin AUC). • 2. Pancreatic compensation (PC)=the absolute ^2H2O production as a percent of total [6,6-^2H2] glucose load (% load)/the integrated glucose response (glucose AUC; to correct for insulin-independent utilization). Statistics
Overall results of glucose and insulin measures were analyzed by a 2 way repeated measures ANOVA using drug and time (repeated) as factors. The primary analysis was followed by Bonferroni posttests to compare all groups. Data are considered significant at p<0.05. AUC 60 min values for glucose and insulin were analyzed by 1 way ANOVA followed by Tukey's comparison of all groups.

[3] = system: Obese, insulin resistant ZF (fa/fa) rats; experiment: Pharmacological Study Report I: deuterated glucose disposal test (2H-GDT); conditions: 4 weeks, Compound A 150 mg/kg gavage twice daily, Compound B 40 mg/kg/day in chow, 90 minute % D2O recovery
Protocol: Obese, insulin resistant ZF (fa/fa) rats, which are treated from the age of 8-12 weeks, were used as IR model. Rats were housed with a 12-h light/dark cycle and free access to food and water unless otherwise noted. Studies were approved by the Institutional Animal Care and Use Committee. There were a total of 18 animals in the study (8 week-old males, provided by Charles River). […]
Rats underwent a 4 hour fast. […] At t=0, the blood glucose concentrations were determined with a glucometer, and a blood sample was obtained for determination of base line insulin and H2O^18 dilution. […]
One hundred micro liter aliquots of plasma samples inside the cape of an inverted vial were placed in a heating blocked filled with glass beads at 70° C. overnight and the water distillate inside the vial was collected. The deuterium and oxygen-18 isotope ratios of the blood of plasma samples were determined using a Thermo Finnigan High Temperature Conversion/Elemental Analyzer coupled with a Thermo Finnigan MAT 253 IRMS via a Conflo-III Interface. […] The deuterium isotope abundance is first calculated in δ 2H values relative to the international VSMOW standard, and then transformed to APE by using a calibration curve of standards with known enrichments. […] Total ^2H2O produced was calculated as a percent of the [6,6′-^2H2]glucose load given. […]

obese Zucker fa/fa rats [4] = experiment: Pharmacological Study Report II: HbA1c levels; conditions: 80 mg/kg, week 4
Protocol: as §1, §2
One week prior to the start of the study, all rats were weighed. After a 4 hour fast, a blood sample was obtained for the determination of blood glucose, insulin, and glycosylated hemoglobin levels (HbA1c). […]
HbA1c level were determined using a DCA 2000 analyzer (Bayer Healthcare LLC, Elkhart Ind.) prior to beginning the study and again at the end of the 4th week treatment period.

[5] = 80 mg/kg, after 4 weeks of treatment
[6] = 80 mg/kg/d, after 4 weeks of treatment

Structure (SMILES): [H]/N=C(\N)NC(=O)c1cc(S(C)(=O)=O)c(S(C)(=O)=O)cc1C [Compound B, 2-Methyl-4,5-di-(methylsulfonyl)-benzoyl-guanidine hydrochloride hydrate]
- Random morning blood glucose level vs vehicle group ([1]; 4 weeks): no significant difference
- Fasting glucose levels, post vs pre treatment ([1]; 4 h fast, after 4 weeks): trended towards lower values post treatment
- Fasting insulin levels compared to pre-treatment levels ([1]; 4 h fast, after 4 weeks): significantly lower
- Blood glucose levels in response to glucose challenge (2H-GDT) (obese Zucker fa/fa rats [2]; 80 mg/kg, 4 weeks of treatment): slightly decreased
- Insulin concentrations in response to glucose challenge (2H-GDT) (obese Zucker fa/fa rats [2]; 80 mg/kg, 4 weeks of treatment): remained elevated
- Pancreatic compensation (PC) (obese Zucker fa/fa rats [2]; 80 mg/kg, after 2 weeks of treatment): intermediate between that of the lean and fa/fa control groups
- Insulin sensitivity (SI) (obese Zucker fa/fa rats [2]; [5]): not significantly improved
- Pancreatic compensation (PC) (obese Zucker fa/fa rats [2]; [5]): slight improvement
- Glucose AUC 60 min in response to a glucose challenge (obese Zucker fa/fa rats [2]; [6]): decreased
- Insulin AUC 60 min in response to a glucose challenge (obese Zucker fa/fa rats [2]; [6]): practically no effect
- Blood glucose and insulin concentrations in response to glucose challenge (2H-GDT) (obese Zucker fa/fa rats [2]; 4 weeks after start of treatment, 40 and 80 mg/kg): continued to have elevated
- Glucose or insulin response to glucose challenge (2H-GDT) (obese Zucker fa/fa rats [2]; after 2 weeks of treatment, 40 and 80 mg/kg): did not affect
- Pancreatic compensation (% 2H2O recovery), before vs after treatment within group [3]: maintained the same degree of pancreatic compensation as was present at baseline
- HbA1c levels vs lean controls (obese Zucker fa/fa rats [4]): significantly higher
